Measurements taken from publication PMC3843672 (PLoS ONE, 2013).

Tests used:
[1] = general procedure: Boc solid-phase peptide synthesis; 4-methylbenzhydrylamine resin (MBHAR) (0.8 mmol/g); conditions: 214 nm
[2] = tested on: B16 cells; test: Peptide bound to the external cell membrane, biotinylated peptides, flow cytometry; type: cell-based, mouse; conditions: biotinylated peptides used, 2 µM, streptavidin-Alexa 488 (FL1), maximum over time course, mean ± SEM, three independent experiments

Compound | final HPLC purity ([1]; conjugation step) [%] | Max. External Fluorescence [2] [AU] | further results
Z-S-R-R-L-S-Y-B-Q-R-S-V-T-Y-S-R-G-R-NH2 | 97 | – | –
Z-T-R-R-L-T-Y-K-Q-R-T-V-T-Y-T-R-G-R-NH2 | – | – | final HPLC purity ([1]; whole synthesis): 99%
Z-T-R-R-L-T-Y-B-p-R-T-V-T-Y-T-R-G-R-NH2 | 97 | – | –
Z-T-R-R-L-T-Y-B-Q-R-T-V-T-Y-T-R-G-R-NH2 | 98 | – | –
CC(C)C[C@@H](NC(=O)[C@@H](CCCNC(=N)N)NC(=O)[C@@H](CCCNC(=N)N)NC(=O)[C@H](NC(=O)[C@H]1CCC(=O)N1)[C@H](C)O)C(=O)N[C@@H](C(=O)N[C@H](Cc1ccc(O)cc1)C(=O)N[C@H](CCCCN)C(=O)N1CCC[C@H]1C(=O)N[C@H](CCCNC(=N)N)C(=O)N[C@@H](C(=O)N[C@@H](C(=O)N[C@@H](C(=O)N[C@H](Cc1ccc(O)cc1)C(=O)N[C@@H](C(=O)N[C@H](CCCNC(=N)N)C(=O)NCC(=O)N[C@H](CCCNC(=N)N)C(N)=O)[C@H](C)O)[C@H](C)O)C(C)C)[C@H](C)O)[C@H](C)O [[D-Thr^2,6,11,15, Pro^9]-D-Gm] ([d(pGlu)][dT][dR][dR][dL][dT][dY][dK]P[dR][dT][dV][dT][dY][dT][dR]G[dR]-NH2) | – | 71±4 | –
Z-S-R-R-L-S-Y-X-Q-R-S-V-T-Y-S-R-G-R-NH2 | 98 | – | –
Z-C-R-R-L-C-Y-B-Q-R-C-V-T-Y-C-R-G-R-NH2 | 98 | – | –
CC(C)C[C@H](NC(=O)[C@H](CCCNC(=N)N)NC(=O)[C@H](CCCNC(=N)N)NC(=O)[C@H](CO)NC(=O)[C@@H]1CCC(=O)N1)C(=O)N[C@@H](CO)C(=O)N[C@@H](Cc1ccc(O)cc1)C(=O)N[C@@H](CCCCN)C(=O)N[C@@H](CCC(N)=O)C(=O)N[C@@H](CCCNC(=N)N)C(=O)N[C@@H](CO)C(=O)N[C@H](C(=O)N[C@H](C(=O)N[C@@H](Cc1ccc(O)cc1)C(=O)N[C@@H](CO)C(=O)N[C@@H](CCCNC(=N)N)C(=O)NCC(=O)N[C@@H](CCCNC(=N)N)C(N)=O)[C@@H](C)O)C(C)C [[Ser^2,6,11,15]-Gm] ([pGlu]SRRLSYKQRSVTYSRGR-NH2) | – | 37±3 | –
Z-S-R-R-L-S-Y-K-Q-R-S-V-T-Y-S-R-G-R-NH2 | – | – | final HPLC purity ([1]; whole synthesis): 98%
Z-C-R-R-L-C-Y-K-Q-R-C-V-T-Y-C-R-G-R-NH2 | – | – | final HPLC purity ([1]; whole synthesis): 98%
Z-C-R-R-L-C-Y-X-Q-R-C-V-T-Y-C-R-G-R-NH2 | 99 | – | –
Z-T-R-R-L-T-Y-K-p-R-T-V-T-Y-T-R-G-R-NH2 | – | – | final HPLC purity ([1]; whole synthesis): 98%
CC(C)C[C@H](NC(=O)[C@H](CCCNC(=N)N)NC(=O)[C@H](CCCNC(=N)N)NC(=O)[C@@H](NC(=O)[C@@H]1CCC(=O)N1)[C@@H](C)O)C(=O)N[C@H](C(=O)N[C@@H](Cc1ccc(O)cc1)C(=O)N[C@@H](CCCCN)C(=O)N1CCC[C@@H]1C(=O)N[C@@H](CCCNC(=N)N)C(=O)N[C@H](C(=O)N[C@H](C(=O)N[C@H](C(=O)N[C@@H](Cc1ccc(O)cc1)C(=O)N[C@H](C(=O)N[C@@H](CCCNC(=N)N)C(=O)NCC(=O)N[C@@H](CCCNC(=N)N)C(N)=O)[C@@H](C)O)[C@@H](C)O)C(C)C)[C@@H](C)O)[C@@H](C)O [[Thr^2,6,11,15, D-Pro^9]-Gm] ([pGlu]TRRLTYK[dP]RTVTYTRGR-NH2) | – | 38±6 | –
CC(C)C[C@H](NC(=O)[C@H](CCCNC(=N)N)NC(=O)[C@H](CCCNC(=N)N)NC(=O)[C@@H](NC(=O)[C@@H]1CCC(=O)N1)[C@@H](C)O)C(=O)N[C@H](C(=O)N[C@@H](Cc1ccc(O)cc1)C(=O)N[C@@H](CCCCN)C(=O)N[C@@H](CCC(N)=O)C(=O)N[C@@H](CCCNC(=N)N)C(=O)N[C@H](C(=O)N[C@H](C(=O)N[C@H](C(=O)N[C@@H](Cc1ccc(O)cc1)C(=O)N[C@H](C(=O)N[C@@H](CCCNC(=N)N)C(=O)NCC(=O)N[C@@H](CCCNC(=N)N)C(N)=O)[C@@H](C)O)[C@@H](C)O)C(C)C)[C@@H](C)O)[C@@H](C)O [[Thr^2,6,11,15]-Gm] ([pGlu]TRRLTYKQRTVTYTRGR-NH2) | – | 17.5± 7 | –
CC(C)C[C@@H](NC(=O)[C@@H](CCCNC(=N)N)NC(=O)[C@@H](CCCNC(=N)N)NC(=O)[C@H](NC(=O)[C@H]1CCC(=O)N1)[C@H](C)O)C(=O)N[C@@H](C(=O)N[C@H](Cc1ccc(O)cc1)C(=O)N[C@H](CCCCN)C(=O)N[C@H](CCC(N)=O)C(=O)N[C@H](CCCNC(=N)N)C(=O)N[C@@H](C(=O)N[C@@H](C(=O)N[C@@H](C(=O)N[C@H](Cc1ccc(O)cc1)C(=O)N[C@@H](C(=O)N[C@H](CCCNC(=N)N)C(=O)NCC(=O)N[C@H](CCCNC(=N)N)C(N)=O)[C@H](C)O)[C@H](C)O)C(C)C)[C@H](C)O)[C@H](C)O [[D-Thr^2,6,11,15]-D-Gm] ([d(pGlu)][dT][dR][dR][dL][dT][dY][dK][dQ][dR][dT][dV][dT][dY][dT][dR]G[dR]-NH2) | – | 43±6 | –

Where a SMILES comes first, the peptide text is derived from it. [ ]: non-standard residue; d: D form. d(pGlu) = O=C1CC[C@H](C(=O)O)N1; pGlu = O=C1CC[C@@H](C(=O)O)N1
